What all share (assay): log2 fold change, soluble protein after heating vs DMSO (PISA); higher = thermal stabilisation; K562 lysate, 10 uM; active = over 0.2 and 3.5 SD of the protein, either way, in both replicates (recomputed)
Compound in assay [1]: NCC(=O)Nc1ccc(-n2nc(C(F)(F)F)cc2-c2ccc3c(ccc4ccccc43)c2)cc1
In outline:
(§1)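 Log-two fold change in thermal stability relative to solvent controls is reported from duplicates. For each sample, crude K562 extract from dounce-homogenised pellets in PBS pH 7.4 with 1 mM MgCl2, at 1 mg/mL protein, was treated with 10 μM compound for 30 min. Aliquots heated for 3 min across 48°C-58°C were pooled, brought to 0.5% NP-40 at 4°C and cleared at 21,000xg for 90 min. The supernatant was quantified by TMTpro 16plex LC-MS/MS with channel sums equalised.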

Amino acid sequences for entries named in this document (tags omitted). A change or cut given only in a name is not applied to a line headed by its entry.
UniProt O75348, whole entry, looked up: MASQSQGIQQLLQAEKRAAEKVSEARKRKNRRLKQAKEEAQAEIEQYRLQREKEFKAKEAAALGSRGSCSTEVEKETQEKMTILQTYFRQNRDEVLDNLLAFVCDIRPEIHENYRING
UniProt P36543, whole entry, looked up: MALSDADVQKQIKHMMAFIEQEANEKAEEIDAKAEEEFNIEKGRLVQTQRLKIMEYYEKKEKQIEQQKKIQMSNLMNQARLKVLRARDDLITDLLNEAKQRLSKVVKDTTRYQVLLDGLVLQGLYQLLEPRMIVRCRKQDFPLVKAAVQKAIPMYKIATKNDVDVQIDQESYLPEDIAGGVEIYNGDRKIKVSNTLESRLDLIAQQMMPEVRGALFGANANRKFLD
UniProt Q8WWM7: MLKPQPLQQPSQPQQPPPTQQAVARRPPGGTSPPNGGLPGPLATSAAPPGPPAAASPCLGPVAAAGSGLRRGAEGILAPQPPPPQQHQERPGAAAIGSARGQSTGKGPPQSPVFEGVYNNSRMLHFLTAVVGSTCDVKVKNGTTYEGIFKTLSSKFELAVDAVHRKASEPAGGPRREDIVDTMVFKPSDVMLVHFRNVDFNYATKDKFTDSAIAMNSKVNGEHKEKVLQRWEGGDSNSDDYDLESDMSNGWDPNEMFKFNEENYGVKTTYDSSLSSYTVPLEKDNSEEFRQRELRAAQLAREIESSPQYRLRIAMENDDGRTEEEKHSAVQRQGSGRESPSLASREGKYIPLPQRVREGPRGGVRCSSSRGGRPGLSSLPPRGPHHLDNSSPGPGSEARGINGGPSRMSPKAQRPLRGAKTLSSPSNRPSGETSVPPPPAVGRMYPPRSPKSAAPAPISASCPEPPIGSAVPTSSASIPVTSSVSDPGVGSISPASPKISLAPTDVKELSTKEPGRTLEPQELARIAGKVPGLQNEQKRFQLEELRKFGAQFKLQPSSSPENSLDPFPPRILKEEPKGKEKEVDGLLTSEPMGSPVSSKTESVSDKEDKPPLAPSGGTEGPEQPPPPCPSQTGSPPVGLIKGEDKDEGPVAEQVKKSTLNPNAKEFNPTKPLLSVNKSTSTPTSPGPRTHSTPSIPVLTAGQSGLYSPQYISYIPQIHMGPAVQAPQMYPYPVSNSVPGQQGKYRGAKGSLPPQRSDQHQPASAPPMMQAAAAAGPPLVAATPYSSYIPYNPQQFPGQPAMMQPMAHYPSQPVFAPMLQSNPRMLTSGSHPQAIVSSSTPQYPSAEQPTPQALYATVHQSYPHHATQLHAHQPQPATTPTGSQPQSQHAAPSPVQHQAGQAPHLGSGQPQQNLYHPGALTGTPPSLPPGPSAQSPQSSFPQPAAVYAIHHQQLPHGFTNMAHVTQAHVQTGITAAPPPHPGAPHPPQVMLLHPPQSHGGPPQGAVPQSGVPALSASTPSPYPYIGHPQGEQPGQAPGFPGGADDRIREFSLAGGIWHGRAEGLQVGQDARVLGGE
UniProt P14415, whole entry, looked up: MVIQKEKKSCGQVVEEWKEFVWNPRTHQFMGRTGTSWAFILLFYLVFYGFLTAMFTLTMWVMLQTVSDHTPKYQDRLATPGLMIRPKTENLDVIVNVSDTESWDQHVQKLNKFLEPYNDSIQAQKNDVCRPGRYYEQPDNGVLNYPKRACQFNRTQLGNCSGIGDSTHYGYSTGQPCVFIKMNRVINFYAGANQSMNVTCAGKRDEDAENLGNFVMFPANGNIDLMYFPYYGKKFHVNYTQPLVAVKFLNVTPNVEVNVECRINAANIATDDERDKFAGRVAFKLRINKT
UniProt Q93084: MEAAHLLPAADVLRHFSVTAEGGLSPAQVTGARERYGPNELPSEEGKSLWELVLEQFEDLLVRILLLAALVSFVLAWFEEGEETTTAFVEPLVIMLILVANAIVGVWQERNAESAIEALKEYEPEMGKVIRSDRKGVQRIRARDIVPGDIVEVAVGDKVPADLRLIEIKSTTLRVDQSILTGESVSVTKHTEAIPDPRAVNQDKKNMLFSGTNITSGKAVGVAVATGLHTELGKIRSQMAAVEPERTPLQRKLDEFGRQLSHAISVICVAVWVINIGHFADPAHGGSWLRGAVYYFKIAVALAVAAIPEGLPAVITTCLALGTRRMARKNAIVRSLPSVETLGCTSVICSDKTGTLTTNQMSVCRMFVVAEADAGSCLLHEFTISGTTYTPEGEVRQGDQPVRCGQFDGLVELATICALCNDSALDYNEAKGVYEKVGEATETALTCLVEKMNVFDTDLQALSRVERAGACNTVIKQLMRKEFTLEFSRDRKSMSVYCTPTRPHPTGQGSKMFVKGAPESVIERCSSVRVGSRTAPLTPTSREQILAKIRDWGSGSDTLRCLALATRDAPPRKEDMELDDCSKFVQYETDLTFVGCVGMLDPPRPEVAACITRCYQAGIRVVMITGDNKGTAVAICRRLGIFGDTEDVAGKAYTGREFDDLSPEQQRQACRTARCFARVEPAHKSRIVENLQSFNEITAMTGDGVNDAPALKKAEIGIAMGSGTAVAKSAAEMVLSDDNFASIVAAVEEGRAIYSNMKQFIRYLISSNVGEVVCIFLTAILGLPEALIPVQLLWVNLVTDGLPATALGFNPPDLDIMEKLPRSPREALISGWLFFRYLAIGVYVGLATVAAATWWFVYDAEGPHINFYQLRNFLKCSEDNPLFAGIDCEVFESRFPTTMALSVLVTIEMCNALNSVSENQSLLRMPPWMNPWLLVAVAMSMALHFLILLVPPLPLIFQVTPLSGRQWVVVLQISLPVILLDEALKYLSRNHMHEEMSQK
UniProt Q2TAZ0: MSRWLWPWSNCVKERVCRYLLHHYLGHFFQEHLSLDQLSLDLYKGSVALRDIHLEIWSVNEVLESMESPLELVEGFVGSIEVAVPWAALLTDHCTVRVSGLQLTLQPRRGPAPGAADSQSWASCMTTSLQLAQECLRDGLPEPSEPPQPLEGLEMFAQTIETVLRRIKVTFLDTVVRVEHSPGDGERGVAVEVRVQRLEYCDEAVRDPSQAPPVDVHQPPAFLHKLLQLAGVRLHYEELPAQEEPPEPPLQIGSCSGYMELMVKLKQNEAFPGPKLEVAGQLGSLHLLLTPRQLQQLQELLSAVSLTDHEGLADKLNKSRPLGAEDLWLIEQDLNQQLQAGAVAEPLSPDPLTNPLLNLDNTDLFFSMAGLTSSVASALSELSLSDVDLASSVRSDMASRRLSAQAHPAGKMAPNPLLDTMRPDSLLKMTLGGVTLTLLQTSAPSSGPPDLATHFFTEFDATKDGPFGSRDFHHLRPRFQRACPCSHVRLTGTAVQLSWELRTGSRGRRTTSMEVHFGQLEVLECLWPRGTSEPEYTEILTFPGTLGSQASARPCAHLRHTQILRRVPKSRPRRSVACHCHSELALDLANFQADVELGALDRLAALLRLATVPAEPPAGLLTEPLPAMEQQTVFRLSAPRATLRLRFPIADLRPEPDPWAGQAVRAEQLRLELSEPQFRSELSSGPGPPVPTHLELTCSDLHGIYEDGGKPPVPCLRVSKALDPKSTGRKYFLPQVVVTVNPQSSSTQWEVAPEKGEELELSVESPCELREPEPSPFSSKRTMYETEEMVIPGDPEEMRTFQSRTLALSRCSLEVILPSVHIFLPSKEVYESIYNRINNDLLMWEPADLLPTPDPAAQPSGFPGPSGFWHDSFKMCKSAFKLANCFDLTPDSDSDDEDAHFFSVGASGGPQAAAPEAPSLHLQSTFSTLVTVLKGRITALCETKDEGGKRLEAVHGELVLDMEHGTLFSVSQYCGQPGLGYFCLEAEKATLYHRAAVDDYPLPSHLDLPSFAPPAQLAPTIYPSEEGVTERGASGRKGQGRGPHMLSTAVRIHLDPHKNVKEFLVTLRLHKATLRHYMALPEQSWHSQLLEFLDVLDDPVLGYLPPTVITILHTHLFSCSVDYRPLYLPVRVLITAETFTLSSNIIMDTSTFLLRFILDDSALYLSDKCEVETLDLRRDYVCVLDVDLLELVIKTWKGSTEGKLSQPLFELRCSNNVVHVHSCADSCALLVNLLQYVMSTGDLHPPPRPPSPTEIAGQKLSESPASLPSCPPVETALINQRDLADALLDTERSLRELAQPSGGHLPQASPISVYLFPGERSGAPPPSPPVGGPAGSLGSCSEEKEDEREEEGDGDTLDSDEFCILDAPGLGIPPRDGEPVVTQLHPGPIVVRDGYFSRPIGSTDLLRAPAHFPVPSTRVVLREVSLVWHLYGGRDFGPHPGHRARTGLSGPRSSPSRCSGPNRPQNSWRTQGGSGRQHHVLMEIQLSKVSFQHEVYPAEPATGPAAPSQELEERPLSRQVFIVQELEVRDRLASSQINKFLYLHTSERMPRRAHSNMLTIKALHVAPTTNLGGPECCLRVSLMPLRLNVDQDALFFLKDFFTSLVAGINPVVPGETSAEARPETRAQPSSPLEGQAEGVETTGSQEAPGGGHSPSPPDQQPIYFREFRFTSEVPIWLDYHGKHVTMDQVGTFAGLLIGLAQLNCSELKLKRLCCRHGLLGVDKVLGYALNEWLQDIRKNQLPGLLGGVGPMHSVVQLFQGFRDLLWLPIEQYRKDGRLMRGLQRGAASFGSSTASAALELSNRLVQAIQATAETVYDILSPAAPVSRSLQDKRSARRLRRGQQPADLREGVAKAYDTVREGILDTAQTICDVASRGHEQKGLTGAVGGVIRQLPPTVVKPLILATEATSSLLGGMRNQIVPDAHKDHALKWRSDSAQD
UniProt H3BUF6: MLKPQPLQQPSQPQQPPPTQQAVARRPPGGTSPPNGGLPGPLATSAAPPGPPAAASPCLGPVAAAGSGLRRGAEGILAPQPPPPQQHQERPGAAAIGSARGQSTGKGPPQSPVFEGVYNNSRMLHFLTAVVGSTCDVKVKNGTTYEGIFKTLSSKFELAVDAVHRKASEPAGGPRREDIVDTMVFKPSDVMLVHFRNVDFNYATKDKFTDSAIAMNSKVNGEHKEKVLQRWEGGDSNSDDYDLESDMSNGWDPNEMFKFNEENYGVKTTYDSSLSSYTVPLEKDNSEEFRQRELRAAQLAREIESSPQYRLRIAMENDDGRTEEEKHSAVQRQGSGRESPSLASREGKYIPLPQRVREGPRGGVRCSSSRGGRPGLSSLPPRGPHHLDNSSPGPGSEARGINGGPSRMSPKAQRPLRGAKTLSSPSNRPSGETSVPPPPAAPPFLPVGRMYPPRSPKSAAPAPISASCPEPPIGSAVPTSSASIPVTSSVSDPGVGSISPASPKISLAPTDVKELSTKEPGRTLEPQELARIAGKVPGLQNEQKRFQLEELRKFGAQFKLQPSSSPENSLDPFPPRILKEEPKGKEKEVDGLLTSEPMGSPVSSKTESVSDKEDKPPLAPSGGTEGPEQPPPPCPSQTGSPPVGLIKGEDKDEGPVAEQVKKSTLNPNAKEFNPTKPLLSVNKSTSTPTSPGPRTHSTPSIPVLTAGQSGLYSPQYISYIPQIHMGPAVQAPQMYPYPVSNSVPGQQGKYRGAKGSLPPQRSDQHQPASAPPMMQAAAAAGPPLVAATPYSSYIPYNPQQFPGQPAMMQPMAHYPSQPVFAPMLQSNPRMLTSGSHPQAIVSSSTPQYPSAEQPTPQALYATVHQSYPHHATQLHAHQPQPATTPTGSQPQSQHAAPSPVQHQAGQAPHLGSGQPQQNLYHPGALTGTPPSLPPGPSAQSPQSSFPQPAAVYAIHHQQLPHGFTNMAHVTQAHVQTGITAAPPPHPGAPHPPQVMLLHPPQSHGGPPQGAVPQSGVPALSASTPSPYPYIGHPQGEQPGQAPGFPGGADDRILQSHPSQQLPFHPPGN
UniProt Q8NBU5: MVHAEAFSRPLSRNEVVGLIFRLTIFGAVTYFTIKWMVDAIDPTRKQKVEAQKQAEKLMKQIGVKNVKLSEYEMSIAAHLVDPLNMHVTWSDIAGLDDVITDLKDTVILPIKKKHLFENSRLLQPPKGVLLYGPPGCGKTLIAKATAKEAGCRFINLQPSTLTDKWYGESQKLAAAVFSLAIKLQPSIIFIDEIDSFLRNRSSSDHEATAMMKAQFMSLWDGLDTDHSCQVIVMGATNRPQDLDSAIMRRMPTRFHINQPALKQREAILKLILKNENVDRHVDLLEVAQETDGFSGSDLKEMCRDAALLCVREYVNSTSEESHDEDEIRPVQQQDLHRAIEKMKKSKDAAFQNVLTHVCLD
UniProt P21281, whole entry, looked up: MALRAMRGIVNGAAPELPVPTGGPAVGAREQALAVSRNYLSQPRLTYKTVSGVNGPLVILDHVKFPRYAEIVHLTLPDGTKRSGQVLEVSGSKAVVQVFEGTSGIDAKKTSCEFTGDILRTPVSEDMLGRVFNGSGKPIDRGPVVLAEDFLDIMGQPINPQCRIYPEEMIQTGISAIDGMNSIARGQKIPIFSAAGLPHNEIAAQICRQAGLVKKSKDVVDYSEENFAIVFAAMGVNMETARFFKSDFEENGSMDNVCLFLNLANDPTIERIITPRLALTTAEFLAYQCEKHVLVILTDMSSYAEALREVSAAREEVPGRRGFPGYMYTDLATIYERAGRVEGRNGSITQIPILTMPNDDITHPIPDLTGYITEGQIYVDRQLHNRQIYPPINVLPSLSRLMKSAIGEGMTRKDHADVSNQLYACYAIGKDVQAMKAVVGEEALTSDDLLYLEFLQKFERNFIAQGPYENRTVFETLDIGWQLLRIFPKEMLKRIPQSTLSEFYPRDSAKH

Compound in assay [2]: O=C(CCCCCCC(=O)Nc1ccccc1)NO [vorinostat]
Put shortly:
as §1

Compound in assay [3]: O=C(O)c1ccc2c(c1)nc(Nc1cccc(Cl)c1)c1ccncc12 [silmitasertib]
Put shortly: as §1

Compound in assay [4]: O=C1NC(=O)C(c2cnc3ccccn23)=C1c1cn2c3c(cc(F)cc13)CN(C(=O)N1CCCCC1)CC2
In outline:
as §1

Compound in assay [5]: c1cn2cc(-c3ccc4cn[nH]c4c3)nc(Nc3ccc(N4CCOCC4)cc3)c2n1 [entospletinib]
In outline: as §1

The list shows a part of the results.

As to ATP5F1B (UniProt F8W0P7), the log2 fold change in assay [1] was inactive: 0.177; in assay [2], inactive: 0.302; in assay [3], inactive: -0.079.
Consider ATP6V0A2 (UniProt Q9Y487), for which the log2 fold change in assay [1] is inactive: -0.033; in assay [2] it was inactive: 0.127; in assay [3], inactive: -0.016; in assay [4], inactive: -0.021; in assay [5], inactive: 0.012.
On to ATP6V1G1 (UniProt O75348), for which the log2 fold change in assay [1] is inactive: 0.04; in assay [2] it was inactive: -0.096; in assay [3] it was inactive: 0.006; in assay [4] it was inactive: -0.014; in assay [5], inactive: 0.008.
Consider ATP6V1E1 (UniProt P36543), for which the log2 fold change in assay [1] is inactive: -0.048; in assay [2] it was inactive: 0.109; in assay [3], inactive: -0.025; in assay [4], inactive: 0.007; in assay [5], inactive: -0.003.
For ATL3 (UniProt Q6DD88), the log2 fold change in assay [1] is inactive: 0.018; in assay [2], inactive: -0.123; in assay [3], inactive: -0.027; in assay [4] it was inactive: -0.03; in assay [5], inactive: 0.016.
Turning to ATXN2L (UniProt Q8WWM7), the log2 fold change in assay [1] is inactive: 0.008; in assay [2] it was inactive: -0.083; in assay [3], inactive: -0.073; in assay [4] it was inactive: -0.109; in assay [5], inactive: 0.004.
Take ATP1B2 (UniProt P14415): the values for the log2 fold change in assay [1], in assay [2] and in assay [3] were inactive: -0.243, inactive: 0.283 and inactive: 0, respectively.
On to ATP2A3 isoform 2 (UniProt Q93084), for which the log2 fold change in assay [1] is inactive: -0.037; in assay [2] it was inactive: -0.047; in assay [3] it was inactive: 0.054; in assay [4], inactive: -0.008; in assay [5], inactive: -0.017.
Take ATG2A isoform 3 (UniProt Q2TAZ0): the log2 fold change is inactive: 0.005 in assay [1]; inactive: -0.045 in assay [2]; inactive: 0.095 in assay [3]; inactive: 0.058 in assay [4]; inactive: -0.001 in assay [5].
As for ATF7IP2 (UniProt Q5U623), the log2 fold change is inactive: 0.066 in assay [1], inactive: 0.027 in assay [2], inactive: 0.002 in assay [3] and inactive: -0.048 in assay [4].
As to ATRAID isoform 3 (UniProt Q6UW56), the log2 fold change in assay [1] was inactive: 0.01; in assay [2] it was inactive: 0.052; in assay [3], inactive: -0.067; in assay [4], inactive: -0.112; in assay [5], inactive: 0.043.
As to ATG4A (UniProt Q8WYN0), the log2 fold change in assay [1] was inactive: -0.059; in assay [2], active: -0.543; in assay [3], inactive: 0.034; in assay [4], inactive: 0.001; in assay [5] it was inactive: 0.004.
In the same order, the values of B3GLCT (UniProt Q6Y288) are inactive: -0.041, inactive: 0.059, inactive: 0.002, inactive: -0.011 and inactive: -0.012.
As to ATP2A2 (UniProt P16615), the log2 fold change in assay [1] was inactive: -0.034; in assay [2], inactive: -0.027; in assay [3], inactive: 0.023; in assay [4], inactive: 0.019; in assay [5], inactive: 0.026.
On to ATP7A isoform 3 (UniProt Q04656), for which the log2 fold change is inactive: 0.01 in assay [1]; inactive: -0.205 in assay [2]; inactive: 0.039 in assay [3]; inactive: 0.026 in assay [4]; inactive: 0.017 in assay [5].
Consider ATXN2L (UniProt H3BUF6), for which the log2 fold change in assay [1] was inactive: 0.05; in assay [2], inactive: -0.014; in assay [3], inactive: -0.059; in assay [4] it was inactive: -0.209; in assay [5] it was inactive: -0.295.
As to B4GALNT1 (UniProt Q00973), the log2 fold change was inactive: 0.007 in assay [1]; inactive: -0.055 in assay [2]; inactive: -0.003 in assay [3]; inactive: 0.027 in assay [4]; inactive: -0.022 in assay [5].
Turning to ASPM (UniProt Q8IZT6), the log2 fold change in assay [1] was inactive: 0.032; in assay [2] it was inactive: -0.025; in assay [3] it was inactive: 0.093; in assay [4], inactive: 0.023; in assay [5] it was inactive: 0.036.
In the case of ATXN7L2 (UniProt Q5T6C5), the log2 fold change in assay [1] is inactive: -0.039.
For ATAD1 (UniProt Q8NBU5), the log2 fold change in assay [1] was inactive: -0.047; in assay [2], active: -0.617; in assay [3], inactive: 0.021; in assay [4], inactive: 0.002; in assay [5], inactive: 0.008.
For the target ATP6V1B2 (UniProt P21281), the log2 fold change is inactive: 0.002 in assay [1]; inactive: 0.127 in assay [2]; inactive: -0.018 in assay [3]; inactive: 0.014 in assay [4]; inactive: 0.032 in assay [5].
As for ATPAF1 (UniProt Q5TC12), the log2 fold change was inactive: 0.086 in assay [1]; inactive: 0.01 in assay [2]; inactive: -0.02 in assay [3]; inactive: -0.003 in assay [4]; inactive: -0.03 in assay [5].
As to ATP13A1 (UniProt Q9HD20), the log2 fold change in assay [1] was inactive: -0.009; in assay [2], inactive: -0.094; in assay [3], inactive: 0.03; in assay [4] it was inactive: -0.02; in assay [5], inactive: -0.03.
On to ATP6V0C (UniProt P27449), for which the log2 fold change in assay [1] is inactive: 0.021; in assay [2], inactive: 0.179; in assay [3] it was inactive: 0.051; in assay [4], inactive: 0.079; in assay [5], inactive: 0.082.
Take ATP2C1 isoform 7 (UniProt P98194): the log2 fold change in assay [1] is inactive: 0.199; in assay [2], inactive: 0.092; in assay [3], inactive: 0.082; in assay [4], inactive: -0.013; in assay [5], inactive: -0.047.

The values above are taken from the supplement of paper PMC10849652.
